Data on four molecules can be found in PMC6158211.

No constants are given. Whether binding was seen depends on the method and setting. In cells and extracts the contact can be indirect. Here binding means that the protein was enriched with, or labelled near, the bait; the list need not be complete. Sequences can lack the tags named with a protein.

The target in the assay is T1, 3xFlag-UBL3 (wild-type ubiquitin-like 3 / membrane-anchored Ub-fold protein) (UniProt O95164).
T1 sequence: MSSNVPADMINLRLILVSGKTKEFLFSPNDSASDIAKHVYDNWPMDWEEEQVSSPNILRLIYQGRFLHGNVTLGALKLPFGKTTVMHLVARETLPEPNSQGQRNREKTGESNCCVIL
Kind of assay: affinity purification with mass spectrometry; 3xFlag-UBL3, 3xFlag-UBL3C113/114A or 3xFlag empty vector expressed in MDA-MB-231 cells; 1% Triton buffer lysate, anti-Flag M2 affinity gel 16 h at 4 °C, on-bead digestion, LC-MS/MS with label-free quantification, triplicate pull-downs.

B1: ITGA6 (protein, UniProt P23229 24-1130)
chain: FNLDTREDNVIRKYGDPGSLFGFSLAMHWQLQPEDKRLLLVGAPRAEALPLQRANRTGGLYSCDITARGPCTRIEFDNDADPTSESKEDQWMGVTVQSQGPGGKVVTCAHRYEKRQHVNTKQESRDIFGRCYVLSQNLRIEDDMDGGDWSFCDGRLRGHEKFGSCQQGVAATFTKDFHYIVFGAPGTYNWKGIVRVEQKNNTFFDMNIFEDGPYEVGGETEHDESLVPVPANSYLGLLFLTSVSYTDPDQFVYKTRPPREQPDTFPDVMMNSYLGFSLDSGKGIVSKDEITFVSGAPRANHSGAVVLLKRDMKSAHLLPEHIFDGEGLASSFGYDVAVVDLNKDGWQDIVIGAPQYFDRDGEVGGAVYVYMNQQGRWNNVKPIRLNGTKDSMFGIAVKNIGDINQDGYPDIAVGAPYDDLGKVFIYHGSANGINTKPTQVLKGISPYFGYSIAGNMDLDRNSYPDVAVGSLSDSVTIFRSRPVINIQKTITVTPNRIDLRQKTACGAPSGICLQVKSCFEYTANPAGYNPSISIVGTLEAEKERRKSGLSSRVQFRNQGSEPKYTQELTLKRQKQKVCMEETLWLQDNIRDKLRPIPITASVEIQEPSSRRRVNSLPEVLPILNSDEPKTAHIDVHFLKEGCGDDNVCNSNLKLEYKFCTREGNQDKFSYLPIQKGVPELVLKDQKDIALEITVTNSPSNPRNPTKDGDDAHEAKLIATFPDTLTYSAYRELRAFPEKQLSCVANQNGSQADCELGNPFKRNSNVTFYLVLSTTEVTFDTPDLDINLKLETTSNQDNLAPITAKAKVVIELLLSVSGVAKPSQVYFGGTVVGEQAMKSEDEVGSLIEYEFRVINLGKPLTNLGTATLNIQWPKEISNGKWLLYLVKVESKGLEKVTCEPQKEINSLNLTESHNSRKKREITEKQIDDNRKFSLFAERKYQTLNCSVNVNCVNIRCPLRGLDSKASLILRSRLWNSTFLEEYSKLNYLDILMRAFIDVTAAAENIRLPNAGTQVRVTVFPSKTVAQYSGVPWWIILVAILAGILMLALLVFILWKCGFFKRSRYDDSVPRYHAVRIRKEEREIKDEKYIDNLEKKQWITKWNENESYS
Take B1: the binding entry is “binds”.

B2: TGFBR1 (receptor, UniProt P36897 34-503)
chain: LQCFCHLCTKDNFTCVTDGLCFVSVTETTDKVIHNSMCIAEIDLIPRDRPFVCAPSSKTGSVTTTYCCNQDHCNKIELPTTVKSSPGLGPVELAAVIAGPVCFVCISLMLMVYICHNRTVIHHRVPNEEDPSLDRPFISEGTTLKDLIYDMTTSGSGSGLPLLVQRTIARTIVLQESIGKGRFGEVWRGKWRGEEVAVKIFSSREERSWFREAEIYQTVMLRHENILGFIAADNKDNGTWTQLWLVSDYHEHGSLFDYLNRYTVTVEGMIKLALSTASGLAHLHMEIVGTQGKPAIAHRDLKSKNILVKKNGTCCIADLGLAVRHDSATDTIDIAPNHRVGTKRYMAPEVLDDSINMKHFESFKRADIYAMGLVFWEIARRCSIGGIHEDYQLPYYDLVPSDPSVEEMRKVVCEQKLRPNIPNRWQSCEALRVMAKIMRECWYANGAARLTALRIKKTLSQLSQQEGIKM
Take B2: the binding entry was “binds”.

B3: RB1 (protein, UniProt P06400 1-928)
chain: MPPKTPRKTAATAAAAAAEPPAPPPPPPPEEDPEQDSGPEDLPLVRLEFEETEEPDFTALCQKLKIPDHVRERAWLTWEKVSSVDGVLGGYIQKKKELWGICIFIAAVDLDEMSFTFTELQKNIEISVHKFFNLLKEIDTSTKVDNAMSRLLKKYDVLFALFSKLERTCELIYLTQPSSSISTEINSALVLKVSWITFLLAKGEVLQMEDDLVISFQLMLCVLDYFIKLSPPMLLKEPYKTAVIPINGSPRTPRRGQNRSARIAKQLENDTRIIEVLCKEHECNIDEVKNVYFKNFIPFMNSLGLVTSNGLPEVENLSKRYEEIYLKNKDLDARLFLDHDKTLQTDSIDSFETQRTPRKSNLDEEVNVIPPHTPVRTVMNTIQQLMMILNSASDQPSENLISYFNNCTVNPKESILKRVKDIGYIFKEKFAKAVGQGCVEIGSQRYKLGVRLYYRVMESMLKSEEERLSIQNFSKLLNDNIFHMSLLACALEVVMATYSRSTSQNLDSGTDLSFPWILNVLNLKAFDFYKVIESFIKAEGNLTREMIKHLERCEHRIMESLAWLSDSPLFDLIKQSKDREGPTDHLESACPLNLPLQNNHTAADMYLSPVRSPKKKGSTTRVNSTANAETQATSAFQTQKPLKSTSLSLFYKKVYRLAYLRLNTLCERLLSEHPELEHIIWTLFQHTLQNEYELMRDRHLDQIMMCSMYGICKVKNIDLKFKIIVTAYKDLPHAVQETFKRVLIKEEEYDSIIVFYNSVFMQRLKTNILQYASTRPPTLSPIPHIPRSPYKFPSSPLRIPGGNIYISPLKSPYKISEGLPTPTKMTPRSRILVSIGESFGTSEKFQKINQMVCNSDRVLKRSAEGSNPPKPLKKLRFDIEGSDEADGSKHLPGESKFQQKLAEMTSTRTRMQKQKMNDSMDTSNKEEK
B3: the binding result is reported as “binds”.

B4: ATXN10 (protein, UniProt Q9UBB4 1-475)
chain: MAAPRPPPARLSGVMVPAPIQDLEALRALTALFKEQRNRETAPRTIFQRVLDILKKSSHAVELACRDPSQVENLASSLQLITECFRCLRNACIECSVNQNSIRNLDTIGVAVDLILLFRELRVEQESLLTAFRCGLQFLGNIASRNEDSQSIVWVHAFPELFLSCLNHPDKKIVAYSSMILFTSLNHERMKELEENLNIAIDVIDAYQKHPESEWPFLIITDLFLKSPELVQAMFPKLNNQERVTLLDLMIAKITSDEPLTKDDIPVFLRHAELIASTFVDQCKTVLKLASEEPPDDEEALATIRLLDVLCEMTVNTELLGYLQVFPGLLERVIDLLRVIHVAGKETTNIFSNCGCVRAEGDISNVANGFKSHLIRLIGNLCYKNKDNQDKVNELDGIPLILDNCNISDSNPFLTQWVIYAIRNLTEDNSQNQDLIAKMEEQGLADASLLKKVGFEVEKKGEKLILKSTRDTPKP
In the case of B4, the binding result is listed as “binds”.
